This experiment has as its target terminal nucleotidyltransferase protein 4B (TENT4B) (human (endogenous in HepG2-HBV)) (UniProt Q8NDF8). Nature of the experiment: co-IP.

The chains behind the UniProt entries cited, without tags or fusion partners.
UniProt Q8NDF8: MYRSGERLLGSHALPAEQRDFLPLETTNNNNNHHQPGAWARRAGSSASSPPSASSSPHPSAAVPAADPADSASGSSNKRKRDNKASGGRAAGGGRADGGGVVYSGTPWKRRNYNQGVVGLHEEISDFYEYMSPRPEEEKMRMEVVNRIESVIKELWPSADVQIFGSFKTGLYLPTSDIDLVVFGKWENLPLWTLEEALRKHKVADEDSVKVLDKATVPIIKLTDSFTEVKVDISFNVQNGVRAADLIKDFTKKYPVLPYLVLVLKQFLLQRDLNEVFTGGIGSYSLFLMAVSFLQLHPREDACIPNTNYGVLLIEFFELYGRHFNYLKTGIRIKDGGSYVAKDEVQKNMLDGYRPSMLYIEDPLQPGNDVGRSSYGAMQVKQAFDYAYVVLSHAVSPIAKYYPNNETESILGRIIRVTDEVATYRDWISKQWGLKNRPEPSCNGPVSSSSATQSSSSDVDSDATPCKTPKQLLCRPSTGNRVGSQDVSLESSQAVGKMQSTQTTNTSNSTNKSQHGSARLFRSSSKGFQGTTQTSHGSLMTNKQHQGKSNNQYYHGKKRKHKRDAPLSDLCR

No constants are given. Whether binding was seen depends on the method and setting. In cells and extracts the contact can be indirect. Some results given as binding are weak or reduced against the parent protein; the word gives no strength.

B1: zinc finger CCHC-type containing 14 (ZCCHC14) (protein, UniProt Q8WYQ9 1-949)
chain: MASNHPAFSFHQKQVLRQELTQIQSSLNGGGGHGGKGAPGPGGALPTCPACHKITPRTEAPVSSVSNSLENALHTSAHSTEESLPKRPLGKHSKVSVEKIDLKGLSHTKNDRNVECSFEVLWSDSSITSVTKSSSEVTEFISKLCQLYPEENLEKLIPCLAGPDAFYVERNHVDLDSGLRYLASLPSHVLKNDHVRRFLSTSSPPQQLQSPSPGNPSLSKVGTVMGVSGRPVCGVAGIPSSQSGAQHHGQHPAGSAAPLPHCSHAGSAGSALAYRTQMDTSPAILMPSSLQTPQTQEQNGILDWLRKLRLHKYYPVFKQLSMEKFLSLTEEDLNKFESLTMGAKKKLKTQLELEKEKSERRCLNPSAPPLVTSSGVARVPPTSHVGPVQSGRGSHAAELRVEVEQPHHQLPREGSSSEYSSSSSSPMGVQAREESSDSAEENDRRVEIHLESSDKEKPVMLLNHFTSSSARPTAQVLPVQNEASSNPSGHHPLPPQMLSAASHITPIRMLNSVHKPERGSADMKLLSSSVHSLLSLEERNKGSGPRSSMKVDKSFGSAMMDVLPASAPHQPVQVLSGLSESSSMSPTVSFGPRTKVVHASTLDRVLKTAQQPALVVETSTAATGTPSTVLHAARPPIKLLLSSSVPADSAISGQTSCPNNVQISVPPAIINPRTALYTANTKVAFSAMSSMPVGPLQGGFCANSNTASPSSHPSTSFANMATLPSCPAPSSSPALSSVPESSFYSSSGGGGSTGNIPASNPNHHHHHHHQQPPAPPQPAPPPPGCIVCTSCGCSGSCGSSGLTVSYANYFQHPFSGPSVFTFPFLPFSPMCSSGYVSAQQYGGGSTFPVVHAPYSSSGTPDPVLSGQSTFAVPPMQNFMAGTAGVYQTQGLVGSSNGSSHKKSGNLSCYNCGATGHRAQDCKQPSMDFNRPGTFRLKYAPPAESLDSTD
Consider B1, for which the binding result is given as “binds”.

Values taken from publication doi:10.1101/718940.
